PubChem BioAssay AID1159584 | Peter MacCallum Cancer Centre, 2016
The deposit covers about 18,000 reagents; shown is a random part of them. Not all columns of the deposit are shown. Not given: the amount of reagent, the time to read-out.

- Test: 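Genes whose loss is lethal only together with E-cadherin loss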 (primary screen)
- System: human MCF10A breast epithelial cells, parental and CDH1-null
- Reagents: siRNA against human genes
- Measured: 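Cell viability by CellTiter-Glo ATP luminescence, each line scaled to the mean of mock wells across plates, then CDH1-null over parental ratio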
- Direction: CDH1-null / parental viability ratio: higher = CDH1-null cells survive relatively better than parental

no.	gene	CDH1-null / parental viability ratio
1	CLDN9 (claudin 9)	0.72
2	HAUS2 (HAUS augmin like complex subunit 2)	1.06
3	CATSPER1 (cation channel sperm associated 1)	1.23
4	MYH14 (myosin heavy chain 14)	0.94
5	GPR35 (G protein-coupled receptor 35)	1.32
6	MUC13 (mucin 13, cell surface associated)	1.11
7	GABRR3 (gamma-aminobutyric acid type A receptor subunit rho3)	1.44
8	RTN4IP1 (reticulon 4 interacting protein 1)	0.87
9	PTPN22 (protein tyrosine phosphatase non-receptor type 22)	1.34
10	PSKH2 (protein serine kinase H2)	1.04
11	PPP1R3D (protein phosphatase 1 regulatory subunit 3D)	1.35
12	UBE2NL (ubiquitin conjugating enzyme E2 N like (gene/pseudogene))	0.98
13	GAS1 (growth arrest specific 1)	1
14	FZD6 (frizzled class receptor 6)	1.13
15	CGAS (cyclic GMP-AMP synthase)	1.06
16	NAPRT (nicotinate phosphoribosyltransferase)	1.67
17	ZBTB37 (zinc finger and BTB domain containing 37)	0.69
18	ABTB3 (ankyrin repeat and BTB domain containing 3)	0.97
19	FYCO1 (FYVE and coiled-coil domain autophagy adaptor 1)	1.08
20	SLC61A1	0.9
21	TKTL1 (transketolase like 1)	0.94
22	ERVFRD-1 (endogenous retrovirus group FRD member 1, envelope)	1.02
23	CNTD1 (cyclin N-terminal domain containing 1)	1
24	C8orf58 (chromosome 8 open reading frame 58)	1.05
25	LZTS3 (leucine zipper tumor suppressor family member 3)	0.96
26	SASH3 (SAM and SH3 domain containing 3)	1.25
27	PEX26 (peroxisomal biogenesis factor 26)	0.98
28	SNRPB2 (small nuclear ribonucleoprotein polypeptide B2)	0.94
29	HTR4 (5-hydroxytryptamine receptor 4)	1.24
30	CDHR1 (cadherin related family member 1)	1
31	ZNF878 (zinc finger protein 878)	0.83
32	KCNJ11 (potassium inwardly rectifying channel subfamily J member 11)	1.27
33	FBXL20 (F-box and leucine rich repeat protein 20)	0.87
34	ZBED3 (zinc finger BED-type containing 3)	0.82
35	TNNT1 (troponin T1, slow skeletal type)	1.03
36	SMU1 (SMU1 DNA replication regulator and spliceosomal factor)	0.67
37	APBB1IP	0.92
38	SLC8A2	0.74
39	EHD3 (EH domain containing 3)	1.1
40	THAP11 (THAP domain containing 11)	0.97
41	PLA2G10 (phospholipase A2 group X)	1.22
42	PECR (peroxisomal trans-2-enoyl-CoA reductase)	1.04
43	LRRC27 (leucine rich repeat containing 27)	1.16
44	AQP7 (aquaporin 7)	1.25
45	IFNL3 (interferon lambda 3)	1.21
46	STAM (signal transducing adaptor molecule)	1.02
47	ATXN2L (ataxin 2 like)	0.98
48	ATP5IF1 (ATP synthase inhibitory factor subunit 1)	0.97
49	ALG1L1P (ALG1 like 1, pseudogene)	1.02
50	CRABP2 (cellular retinoic acid binding protein 2)	0.97
51	PRB1 (proline rich protein BstNI subfamily 1)	1.09
52	ZNF28 (zinc finger protein 28)	1.17
53	CACNA1D (calcium voltage-gated channel subunit alpha1 D)	1.13
54	NSF (N-ethylmaleimide sensitive factor, vesicle fusing ATPase)	0.79
55	NOC3L (NOC3 like DNA replication regulator)	1.06
56	TBC1D3B (TBC1 domain family member 3B)	1
57	FAM81B (family with sequence similarity 81 member B)	1.01
58	MYO1C (myosin IC)	0.78
59	ZNF274 (zinc finger protein 274)	1.06
60	SYT14P1 (synaptotagmin 14 pseudogene 1)	0.8
61	MST1 (macrophage stimulating 1)	1.08
62	PRKCA (protein kinase C alpha)	0.67
63	SRPK3 (SRSF protein kinase 3)	1.12
64	LY75 (lymphocyte antigen 75)	0.83
65	CC2D2B (coiled-coil and C2 domain containing 2B)	1.09
66	MAN1C1 (mannosidase alpha class 1C member 1)	1.15
67	GALNT2 (polypeptide N-acetylgalactosaminyltransferase 2)	1.01
68	OR51L1 (olfactory receptor family 51 subfamily L member 1)	0.83

10 entries from above, sorted by “CDH1-null / parental viability ratio”, lowest first:
gene	CDH1-null / parental viability ratio
ATP5IF1 (ATP synthase inhibitory factor subunit 1)	0.97
CRABP2 (cellular retinoic acid binding protein 2)	0.97
ATXN2L (ataxin 2 like)	0.98
STAM (signal transducing adaptor molecule)	1.02
ALG1L1P (ALG1 like 1, pseudogene)	1.02
PECR (peroxisomal trans-2-enoyl-CoA reductase)	1.04
PRB1 (proline rich protein BstNI subfamily 1)	1.09
LRRC27 (leucine rich repeat containing 27)	1.16
IFNL3 (interferon lambda 3)	1.21
AQP7 (aquaporin 7)	1.25
